Reference: patent US20210030757A1, “METHOD OF TREATMENT AND COMPOSITIONS COMPRISING A DUAL P13K DELTA-GAMMA KINASE INHIBITOR AND A CORTICOSTEROID” (priority 2014, published 2021)
For part of these data: At least one read-out could not be matched to a standard name with certainty. For part of these data: At least one compound was matched to its structure with a doubt left.

Columns and labels:
Type in all cases: cell-based
[1] = tested on: A549 cells; test: TGF-β1 induced corticosteroid insensitivity in A549 cells (IL-8 ELISA); conditions: 0.1 μM Compound A; TGF-β1 treated A549 cells; TNF-α induced IL-8
[2] = tested on: U937 cells; test: H2O2 induced corticosteroid insensitivity in U937 cells (IL-8 ELISA); conditions: 1 μM Compound A; H2O2 treated U937 cells; TNF-α induced IL-8
[3] = tested on: human neutrophils from COPD patients; test: CSE-induced IL-8 release in peripheral blood neutrophils from COPD patients; conditions: CSE 5%
Description: Neutrophils were isolated from peripheral venous blood by standard laboratory procedures. In brief, peripheral venous blood was mixed with dextran 500 at 3% (in 0.9% saline) in a proportion of 2:1. This mixture was incubated at room temperature for 30 min until erythrocytes were sedimented. The upper phase was carefully collected and added on Ficoll-Paque Histopaque 1077 (Amershan Pharmacia Biotech, Barcelona, Espana) density gradient in a proportion of 3:1. The two phases generated were centrifuged at 150 g, 4° C. for 30 min. […]
CSE was prepared as follows: Briefly, the smoke of a research cigarette (2R4F; Tobacco Health Research, University of Kentucky, Ky., USA) was generated by a respiratory pump (Apparatus Rodent Respirator 680; Harvard, Germany) through a puffing mechanism related to the human smoking pattern (3 puff/min; 1 puff 35 ml; each puff of 2 s duration with 0.5 cm above the filter) and was bubbled into a flask containing 25 ml of pre-warmed (37° C.) Roswell Park Memorial Institute (RPMI)-1640 culture medium. […] The quality of the prepared CSE solution was assessed based on the absorbance at 320 nm, which is the specific absorption wavelength of peroxynitrite. Stock solutions with an absorbance value of 3.0±0.1 were used. […]
IL-8 was measured by ELISA using a commercially available kit. […]

Structure (SMILES) | effect on the IC50 of dexamethasone for IL-8 concentrations [1] | effect on the IC50 of dexamethasone on IL-8 concentrations [2] | inhibition of CSE-induced IL-8 release (in words) [3]
CC(C)Oc1ccc(-c2nn([C@@H](C)c3oc4cccc(F)c4c(=O)c3-c3cccc(F)c3)c3ncnc(N)c23)cc1F [Compound A] | decreased | decreased | 
C[C@@H]1C[C@H]2[C@@H]3CCC4=CC(=O)C=C[C@]4(C)[C@@]3(F)[C@@H](O)C[C@]2(C)[C@@]1(O)C(=O)CO [dexamethasone] |  |  | not able to significantly inhibit IL-8 release
